The entries are a selection whose mix differs from that of the whole data set. For some assays here: At the low end of the ranking the order means little. The list shows a part of the results. For some assays here: Construct or isoform of the protein are uncertain.

Chains of the proteins cited; added tags and fusions are not shown. Lines headed by an entry give the natural chain unless they say otherwise; changes in a name come on top.
UniProt P50549: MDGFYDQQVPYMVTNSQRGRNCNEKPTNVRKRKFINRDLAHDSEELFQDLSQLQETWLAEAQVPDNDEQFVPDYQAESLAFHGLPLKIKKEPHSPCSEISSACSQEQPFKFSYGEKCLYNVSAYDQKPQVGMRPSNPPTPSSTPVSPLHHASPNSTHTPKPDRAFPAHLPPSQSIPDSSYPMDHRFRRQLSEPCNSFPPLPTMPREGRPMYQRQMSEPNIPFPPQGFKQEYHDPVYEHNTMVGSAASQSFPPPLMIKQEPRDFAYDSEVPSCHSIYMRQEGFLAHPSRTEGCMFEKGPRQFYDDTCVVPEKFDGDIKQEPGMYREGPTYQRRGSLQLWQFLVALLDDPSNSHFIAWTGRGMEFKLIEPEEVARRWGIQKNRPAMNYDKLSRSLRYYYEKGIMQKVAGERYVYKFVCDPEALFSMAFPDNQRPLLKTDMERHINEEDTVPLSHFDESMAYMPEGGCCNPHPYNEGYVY
UniProt P32519: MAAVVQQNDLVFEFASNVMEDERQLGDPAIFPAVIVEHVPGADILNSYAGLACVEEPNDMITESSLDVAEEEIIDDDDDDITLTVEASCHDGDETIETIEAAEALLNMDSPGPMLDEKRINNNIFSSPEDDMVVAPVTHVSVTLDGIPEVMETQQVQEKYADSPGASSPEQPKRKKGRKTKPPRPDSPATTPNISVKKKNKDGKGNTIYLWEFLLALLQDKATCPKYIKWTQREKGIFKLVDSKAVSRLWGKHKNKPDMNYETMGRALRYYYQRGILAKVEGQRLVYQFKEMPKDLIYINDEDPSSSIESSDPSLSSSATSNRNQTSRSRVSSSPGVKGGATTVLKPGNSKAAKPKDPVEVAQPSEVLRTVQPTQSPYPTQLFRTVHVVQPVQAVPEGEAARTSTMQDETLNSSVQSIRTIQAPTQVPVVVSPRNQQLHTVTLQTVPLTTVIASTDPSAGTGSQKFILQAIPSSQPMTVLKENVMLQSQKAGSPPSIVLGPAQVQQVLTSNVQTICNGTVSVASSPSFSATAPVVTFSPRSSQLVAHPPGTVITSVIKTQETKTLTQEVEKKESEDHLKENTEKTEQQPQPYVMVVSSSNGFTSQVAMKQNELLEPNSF

What all share (assay): DAPPL (digital affinity profiling via proximity ligation, sequencing)
Holding throughout (conditions): 10 mM Tris-HCl pH 7.5, 50 mM NaCl, 1 mM DTT, 4% glycerol, room temperature, 30 min; GST-TFs on glutathione beads, 16-mer random dsDNA library, 0.1% …; high values mean tight binding; double strand, one strand shown; scale: fold enrichment (6-mer frequency, TF over GST control)

In one test the target is T1, ETV4 (UniProt P43268).
T1 sequence: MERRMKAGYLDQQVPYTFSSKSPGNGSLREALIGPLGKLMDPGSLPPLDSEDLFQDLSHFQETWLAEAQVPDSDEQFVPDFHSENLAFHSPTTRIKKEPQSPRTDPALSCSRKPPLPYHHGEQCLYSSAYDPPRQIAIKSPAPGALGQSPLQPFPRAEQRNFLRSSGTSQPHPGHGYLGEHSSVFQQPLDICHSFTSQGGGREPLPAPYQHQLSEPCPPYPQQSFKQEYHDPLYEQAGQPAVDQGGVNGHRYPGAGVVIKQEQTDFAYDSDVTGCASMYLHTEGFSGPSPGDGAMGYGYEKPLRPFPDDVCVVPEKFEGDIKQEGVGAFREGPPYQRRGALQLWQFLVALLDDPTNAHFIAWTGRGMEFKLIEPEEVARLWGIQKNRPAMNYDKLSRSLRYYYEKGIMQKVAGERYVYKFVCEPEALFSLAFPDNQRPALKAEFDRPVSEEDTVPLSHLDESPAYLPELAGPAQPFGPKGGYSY

The target of a further test is ETV1 (UniProt P50549).
The next test has as its target T2, ERF (UniProt P50548).
T2 sequence: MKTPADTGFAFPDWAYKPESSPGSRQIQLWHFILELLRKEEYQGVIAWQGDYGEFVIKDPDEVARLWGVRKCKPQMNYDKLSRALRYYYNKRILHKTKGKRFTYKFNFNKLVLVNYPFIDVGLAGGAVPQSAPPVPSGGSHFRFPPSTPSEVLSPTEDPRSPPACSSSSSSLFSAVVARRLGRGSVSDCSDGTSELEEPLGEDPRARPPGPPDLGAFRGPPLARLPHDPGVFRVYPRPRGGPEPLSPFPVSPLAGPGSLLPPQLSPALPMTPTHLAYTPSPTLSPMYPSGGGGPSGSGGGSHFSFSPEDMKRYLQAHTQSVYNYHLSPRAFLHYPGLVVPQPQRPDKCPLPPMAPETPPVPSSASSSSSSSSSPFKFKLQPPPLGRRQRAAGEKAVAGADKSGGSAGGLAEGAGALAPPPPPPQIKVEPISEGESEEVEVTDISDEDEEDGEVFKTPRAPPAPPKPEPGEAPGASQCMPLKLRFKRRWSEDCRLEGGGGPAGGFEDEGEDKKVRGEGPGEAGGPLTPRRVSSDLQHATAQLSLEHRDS

The target in a further test is ELF1 (UniProt P32519).

On to TTAGAA, for which the binding signal in the test with ETV4 was found to be 1.05; with ETV1, 1.11.
The matching figures for TCGCTA: 1.04 and 1.08.
The matching figures for AGCTAA: 1.15 and 1.1.
Taken in the same sequence, the figures for GATGCC were 1.37 and 1.36.
For the sequence ACCTAC, the binding signal was determined as 1.26 in the test with ETV4 and 1.23 with ETV1.
Taken in the same sequence, the figures for TAGTTT were 1.2 and 1.24.
The matching figures for GAATCC: 1.15 and 1.13.
The matching figures for AACTTA: 1.24 and 1.22.
Turning to GACCTG, the results for the binding signal with ETV4 and with ETV1 were 1.29 and 1.21, respectively.
The matching figures for CCATTG: 1.26 and 1.05.
Taken in the same sequence, the figures for AAGAAT were 1.14 and 1.15.
Turning to GCCGAC, the binding signal with ETV4 came to 1.1; with ETV1, 1.04.
The matching figures for CTGCCG: 1.31 and 1.34.
As to TGAACT, the binding signal was determined as 1.19 with ETV4 and 1.24 with ETV1.
TGAAAC: the binding signal was determined as 1.3 with ETV4 and 1.27 in the test with ETV1.
For ATACAA, the binding signal was found to be 1.19 in the test with ETV4 and 1.13 with ETV1.
For the sequence TATCCT, the binding signal with ETV4 turned out to be 1.8; in the test with ETV1, 1.72.
The matching figures for TAGCCC: 1.29 and 1.12.
The matching figures for CTCATT: 1.53 and 1.52.
For TCTCGC, the binding signal was 1.85 in the test with ETV4 and 1.75 with ETV1.
For GATTCC, the binding signal in the test with ETV4 amounted to 1.11; with ETV1, 1.21.
Taken in the same sequence, the figures for GCGTTC were 1.11 and 1.28.
The matching figures for AGGCTC: 1.1 and 1.06.
In the case of TATCGA, the binding signal was 1.32 in the test with ETV4 and 1.31 in the test with ETV1.
With CGATCT, the results for the binding signal with ETV4 and with ETV1 were 1.41 and 1.24, respectively.
The matching figures for TTGCCT: 1.25 and 1.37.
Taken in the same sequence, the figures for GGTATT were 1.12 and 1.16.
For the sequence CTTCAA, the binding signal with ETV4 turned out to be 1.33; in the test with ETV1, 1.36.
The matching figures for AAGTGG: 1.16 and 1.2.
GGCTCC: the figures for the binding signal with ETV4 and with ETV1 were 1.51 and 1.24, respectively.
Taken in the same sequence, the figures for CTAAGA were 1.21 and 1.22.
Consider AAGATA, for which the figures for the binding signal with ETV4 and in the test with ETV1 were 1.09 and 1.2, respectively.
With GTCACA, the binding signal in the test with ETV4 was 1.05; with ETV1, 1.06; in the test with ERF, 1.11.
In the case of AGTATC, the binding signal in the test with ETV4 and with ETV1 was 1.07 in each case.
Turning to TTAGTA, the binding signal with ETV4 and in the test with ETV1 was 1.11 in each case.
Regarding TGCCAA, the binding signal with ETV4 turned out to be 1.13; in the test with ETV1, 0.962; with ERF it was 1.15.
Turning to TTATTT, the binding signal with ETV4 was determined as 1.31; in the test with ETV1, 1.52.
Consider TACTGG, for which the binding signal with ETV4 amounted to 1.09; in the test with ETV1 it was 0.988.
Consider TTACCG, for which the values for the binding signal in the test with ETV4 and with ETV1 were 1.12 and 1.14, respectively.
The matching figures for CTTCCT: 3.08 and 3.18.
As to CCGGAA, the binding signal with ETV4 was 5.75; in the test with ETV1, 6.04.
Turning to ACAATC, the binding signal worked out at 1.14 with ETV4 and 1.16 in the test with ETV1.
Taken in the same sequence, the figures for CTTGGG were 1.28 and 1.38.
On to GGTCTT, for which the binding signal came to 1.23 in the test with ETV4 and 1.11 in the test with ETV1.
In the case of AAAAGC, the binding signal in the test with ETV4 was 1.2; in the test with ETV1, 1.19; in the test with ERF, 1.15.
Take ATGGAT: the binding signal with ETV4 was determined as 1.14; in the test with ETV1 it was 1.06.
With CGTTCG, the binding signal in the test with ETV4 came out at 1.18; with ETV1, 1.19; with ERF, 1.52.
Take ACAATA: the binding signal in the test with ETV4 was found to be 1.17; with ETV1, 1.13.
The matching figures for TCCCAA: 1.15 and 1.2.
Taken in the same sequence, the figures for CCGTAC were 1.32 and 1.34.
The matching figures for TACTTT: 1.34 and 1.39.
For the sequence ACACAC, the binding signal was found to be 1.16 with ETV4 and 1.17 with ETV1.
Consider TGCAAC, for which the binding signal is 1.4 with ETV4, 1.4 with ETV1 and 1.31 with ERF.
For the sequence CTGGGT, the binding signal with ETV4 was 1.11; in the test with ETV1, 0.997.
Regarding CCCCGG, the binding signal with ETV4 is 1.23; in the test with ETV1 it was 1.29; with ERF, 1.34.
TCTCCC: the results for the binding signal with ETV4 and with ETV1 were 1.69 and 1.78, respectively.
The matching figures for CGTATG: 1.07 and 1.04.
In the case of CCATGC, the binding signal with ETV4 came out at 1.04; in the test with ETV1 it was 0.949; with ERF, 1.01.
Taken in the same sequence, the figures for GCTACC were 1.21, 1.26 and 1.31.
For TATCAG, the binding signal with ETV4 and in the test with ETV1 was 1.14 each time.
In the case of TACATC, the binding signal was 1.79 with ETV4 and 1.64 in the test with ETV1.
The matching figures for CTTGTG: 1.51 and 1.44.
The matching figures for CTCCTG: 1.67 and 1.79.
The matching figures for TCACAC: 1.37 and 1.33.
As for CTCAGG, the binding signal with ETV4 is 1.04; with ETV1, 0.963.
Turning to TTCCTT, the figures for the binding signal with ETV4, in the test with ETV1 and with ERF were 1.76, 2.04 and 1.77, respectively.
Taken in the same sequence, the figures for CTGCAC were 1.21, 1.13 and 1.11.
TACCGA: the binding signal with ELF1 is 1.17; with ETV4, 1.08; with ETV1 it was 1.24.
As for TGTGGA, the figures for the binding signal in the test with ELF1, with ETV4 and with ETV1 were 1.11, 1.07 and 1.03, respectively.
On to AACATA, for which the binding signal turned out to be 1.29 in the test with ETV4, 1.21 in the test with ETV1 and 1.32 with ERF.
The matching figures for GTCCAC: 1.07, 0.946 and 1.07.
Taken in the same sequence, the figures for AATCGA were 0.967, 0.989 and 0.963.
Turning to AAAAAA, the binding signal is 1.32 in the test with ELF1, 1.25 in the test with ETV4 and 1.27 with ETV1.
As to CCTACT, the values for the binding signal in the test with ELF1, with ETV4 and with ETV1 were 1.73, 1.74 and 1.49, respectively.
Take AACCTC: the binding signal stood at 1.24 with ETV4, 1.24 with ETV1 and 1.26 in the test with ERF.
Regarding TTCCCT, the binding signal with ETV4 stood at 1.66; with ETV1, 1.68; with ERF it was 1.58.
The matching figures for GTGCTT: 1.38, 1.16 and 1.26.
With ATCTTC, the binding signal stood at 1.64 in the test with ELF1, 1.6 with ETV4, 1.63 with ETV1 and 1.45 with ERF.
As for ACATCA, the binding signal in the test with ETV4 turned out to be 1.18; with ETV1, 1.15; with ERF, 1.13.
ATTTAT: the binding signal in the test with ETV4 amounted to 1.33; with ETV1 it was 1.43; with ERF it was 1.51.
Taken in the same sequence, the figures for CTCCTT were 1.78, 1.69 and 1.86.
In the case of AATGAT, the binding signal was found to be 1.14 with ETV4, 1.07 with ETV1 and 1.18 with ERF.
Taken in the same sequence, the figures for TCACGA were 1.11, 1.13 and 1.14.
The matching figures for TTTTCA: 1.16, 1.22 and 1.24.
As to TATGGT, the results for the binding signal in the test with ETV4, with ETV1 and with ERF were 1.32, 1.27 and 1.18, respectively.
Taken in the same sequence, the figures for CAAGGT were 1.02, 1.13 and 0.954.
In the case of CGACGA, the binding signal with ELF1 is 1.09; with ETV4 it was 1.24; with ETV1, 1.07; with ERF, 1.12.
As to TAATAA, the binding signal was determined as 1.19 in the test with ETV4, 1.12 with ETV1 and 1.28 in the test with ERF.
Turning to CTCAAC, the binding signal turned out to be 1.31 with ETV4, 1.24 with ETV1 and 1.15 in the test with ERF.
As to AAATTT, the binding signal came to 1.3 in the test with ETV4, 1.35 in the test with ETV1 and 1.43 with ERF.
Regarding TAGTCC, the binding signal worked out at 1.15 in the test with ELF1, 1.14 with ETV4, 1.1 in the test with ETV1 and 0.98 in the test with ERF.
Taken in the same sequence, the figures for GCTTTG were 1.14, 1.21, 1.16 and 1.09.
As for TATAGT, the binding signal was 1.01 with ETV4, 1.11 with ETV1 and 1.16 with ERF.
Take CCTCAT: the binding signal is 1.35 with ELF1, 1.38 in the test with ETV4 and 1.37 with ETV1.
For the sequence CCTCTT, the binding signal with ETV4 was determined as 1.65; in the test with ETV1, 1.55; with ERF it was 1.59.
With AGCTAC, the binding signal in the test with ELF1 came to 1.15; with ETV4, 1.19; with ETV1, 1.21; with ERF, 1.25.
For CTAGTT, the results for the binding signal in the test with ETV4, in the test with ETV1 and with ERF were 1.36, 1.35 and 1.34, respectively.
For AATGCT, the results for the binding signal with ELF1, with ETV4 and in the test with ETV1 were 1.16, 1.26 and 1.24, respectively.

These data come from paper PMC7862700.
